These are yes or no findings as the source states them, for the method shown. Binding seen in cells or lysates may run through a third protein. A result given as binding can be weak or reduced; the word gives no strength. Tags and fused reporters may be left off the sequences shown.
Molecular target: T1, His-tagged OLFML1 (OLFML1^His), exogenously expressed in HEK293T (human) (UniProt Q6UWY5)
T1 sequence: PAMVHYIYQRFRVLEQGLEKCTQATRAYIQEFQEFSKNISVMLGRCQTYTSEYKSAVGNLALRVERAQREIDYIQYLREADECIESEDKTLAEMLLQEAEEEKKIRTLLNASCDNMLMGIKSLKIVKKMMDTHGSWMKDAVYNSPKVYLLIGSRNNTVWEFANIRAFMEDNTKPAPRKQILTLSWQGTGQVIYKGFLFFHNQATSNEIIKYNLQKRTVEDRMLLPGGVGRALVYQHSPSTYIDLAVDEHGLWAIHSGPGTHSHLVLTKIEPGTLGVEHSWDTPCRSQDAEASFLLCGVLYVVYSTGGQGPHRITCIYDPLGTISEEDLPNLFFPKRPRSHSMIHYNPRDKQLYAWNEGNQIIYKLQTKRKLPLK
Assay: co-IP; HEK293T cells co-transfected with His-tagged OLFML1 and Flag-tagged IGF2BP3 constructs (whole or truncated); IP with anti-Flag or anti-His; immunoblot with anti-Flag or anti-His

binding: binds
Substance: RRM+KH1-2 truncation of Flag-IGF2BP3 (domain or fragment)

— PMC12320246
